# This is one part of the list. Shown are side measurements of this screen, not its main read-out; they come without a call. The list favours compounds with an active or inconclusive main result. Potencies come from curve fits of mixed quality, noted in brackets.
# Assay: qHTS Assay for Lipid Storage Modulators in Drosophila S3 Cells;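 for cell number change: cells counted by Cell Tracker Red CMTPX staining in the red channel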
# Details: BODIPY lipid droplet fluorescence, 18-24 h; for cell number change: measured here: cell count max response, cells fed with added oleic acid
# Outline: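 Laser-scanning cytometry quantifies lipid droplet accumulation (500–530 nm total intensity; droplet/cell object ratio) in oleic acid-fed (400 uM added) Drosophila S3 cells treated with a concentration series. 20 uM Triacsin C defined 100% inhibition.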
# [1] = measured here: cell number channel AC50, cells fed with added oleic acid
# [2] = measured here: lipid fluorescence (Fed channel) AC50, cells fed with added oleic acid
Structure (SMILES),cell number change,AC50 [1],AC50 [2]
Cc1c(NS(=O)(=O)c2cc(C(=O)NC(C)c3ccccc3)ccc2Cl)c(=O)n(-c2ccccc2)n1C (configuration not stated),252%,"29.1 µM [rising, single point]","4.11 µM [falling, single point]"
CSc1n[nH]c(N)c1S(=O)(=O)c1ccc(Cl)cc1,-22.2%,"0.411 µM [falling, full curve, poor fit]",
COC(=O)c1ccc(Cl)c(NC(=O)CN(c2ccc3c(c2)OCO3)S(C)(=O)=O)c1,,"0.92 µM [rising, partial curve]",
CCOC(=O)c1nn(-c2ccccc2)c(=O)cc1SC(C)CC (configuration not stated),10.6%,"0.0326 µM [rising, partial curve, poor fit]",
OCCNCc1cc(Br)ccc1OCc1ccc(Cl)cc1,-12%,,"29.1 µM [falling, single point]"
Nc1nonc1C(=O)NCCNC(=O)c1cccs1,-57.8%,"29.1 µM [falling, single point]","10.3 µM [falling, single point]"
CC1CC(=S)Nc2ccccc2N1C(=O)Nc1ccccc1 (configuration not stated),12.3%,,"7.31 µM [rising, partial curve, poor fit]"
O=S1(=O)CCO[C@H]2Cc3ccccc3[C@H]2N1Cc1ccccc1Br,-2.91%,,"0.092 µM [rising, full curve, poor fit]"
CCOC(=O)c1c(C)[nH]c(C)c1C(=O)COC(=O)/C=C/c1ccc(OC(F)F)cc1,16.7%,"7.31 µM [rising, single point]","10.3 µM [rising, partial curve]"
O=C(NC12CC3CC(CC(C3)C1)C2)c1ccc(=O)oc1,6.33%,,"0.651 µM [rising, full curve, poor fit]"
CC(Oc1ccc2ccc(=O)oc2c1)C(=O)NCCCn1ccnc1 (configuration not stated),-6.49%,,"29.1 µM [falling, single point]"
CCCCn1c(N)c(N(CCC(C)C)C(=O)CC2OC(=O)c3ccccc32)c(=O)[nH]c1=O (configuration not stated),0.5%,,
COc1ccc(C(C)NCCC(c2ccc(OC(C)C)cc2)c2ccccc2OC)cc1 (configuration not stated),-9.01%,,"29.1 µM [falling, single point]"
CC(NS(=O)(=O)c1ccc2c(c1)CC(C)N2C(=O)C1CC1)c1ccccc1 (configuration not stated),30.1%,"13 µM [rising, partial curve, poor fit]","20.6 µM [rising, single point]"
COc1ccc(OC(C)C(=O)N(C)Cc2nc(-c3cccc(C)c3)no2)cc1 (configuration not stated),10.9%,,"0.231 µM [rising, full curve, poor fit]"
Cc1ccc(CN2CCN(C(=O)CCN3C(=O)c4ccccc4C3=O)CC2)cc1,30%,"25.9 µM [rising, single point]","29.1 µM [rising, single point]"
O=C(Nc1ccc(F)cc1)Nc1ccccc1C(=O)NCCN1CCNC1=O,-3.53%,,
CCc1ccc(NC(=O)CCC(=O)c2ccc(C)cc2)cc1,3.4%,,"6.51 µM [rising, single point]"

# Taken from above.
# Under AC50 [2], O=S1(=O)CCO[C@H]2Cc3ccccc3[C@H]2N1Cc1ccccc1Br reads 0.092 µM [rising, full curve, poor fit]
# Under cell number change, O=C(NC12CC3CC(CC(C3)C1)C2)c1ccc(=O)oc1 reads 6.33%

# Continued:

Structure (SMILES),cell number change,AC50 [1],AC50 [2]
COc1ccc(NC2=CC(c3ccc(OC)c(OC)c3)N(c3ccc(OC)cc3)C2=O)cc1 (configuration not stated),,,"14.6 µM [rising, single point]"
CCOC(=O)Cc1nnc2c(Nc3ccc(C)cc3)nc3nonc3n12,,"0.58 µM [rising, single point]","0.411 µM [rising, partial curve, poor fit]"
CCCc1cc(C(N)=O)c(NC(=O)c2ccco2)s1,,,"0.58 µM [rising, single point]"
O=S(=O)(Nc1ccc(-c2ccc(N3CCOCC3)nn2)cc1)c1cc(Cl)ccc1Cl,-20.6%,,"0.092 µM [rising, full curve, poor fit]"
CCc1ccc(N=C2NC(=O)/C(=C/c3cc(OC)c(OC)c(OC)c3)S2)cc1,-39.2%,"20.6 µM [falling, single point]",
NC(=O)Cn1c(O)c(N=NC(=O)CNC(=O)/C=C/c2ccccc2)c2ccccc21,16.5%,,"2.06 µM [rising, partial curve, poor fit]"
Cc1cc(N2CCCC2)nc(-c2ccccc2O)n1,-22.9%,"0.103 µM [falling, partial curve, poor fit]","10.3 µM [falling, partial curve, poor fit]"
CN(CC(=O)Nc1ccc(F)c(F)c1F)C(=O)C1CCCC1,-32%,"29.1 µM [falling, single point]","29.1 µM [falling, single point]"
COc1cc(CN2CCN(CCOCCO)CC2)cc(OC)c1OC,-29.5%,,"1.03 µM [falling, full curve]"
Cc1ccc(N2C(N)=C(C#N)C(c3cccnc3)C3=C2CC(C)(C)CC3=O)cc1 (configuration not stated),,"0.0731 µM [rising, full curve, poor fit]","0.103 µM [rising, full curve, poor fit]"
CCOC(=O)c1nn(-c2ccc(F)cc2)c(=O)c2c(N)scc12,-18%,,"2.31 µM [falling, partial curve, poor fit]"
Cc1ccc(C(=O)N/C(=C\c2ccco2)C(=O)N2CC(C)OC(C)C2)cc1C (configuration not stated),-6.52%,,"29.1 µM [rising, single point]"
O=C(CSc1nc(O)cc(=O)n1-c1ccccc1)NCc1ccccc1,-55.8%,"11.6 µM [falling, partial curve, poor fit]",
CC(C)CNS(=O)(=O)c1ccc(S(=O)(=O)N2CCN(CCC#N)CC2)cc1,18.4%,,"0.651 µM [falling, single point]"
Nn1c(SCc2csc(-c3ccccc3)n2)nnc1-c1cccs1,,"2.31 µM [rising, partial curve]",
COc1ccc(Oc2nc(-c3ccccc3)ncc2C(=O)O)cc1,-3.49%,,"0.082 µM [falling, partial curve, poor fit]"
COc1ccc(-c2cc(C(F)(F)F)nc(N3CCN(c4ccc(F)cc4)CC3)n2)cc1OC,-97.1%,"29.1 µM [falling, single point]","29.1 µM [falling, single point]"
